# Laboratory results from the supplement of paper PMC8728848.
# Some of the results follow.
# B1: SUN4 (Saccharomyces cerevisiae), P53616 (protein)
# chain: MGSSHHHHHHSSGLVPRGSHNGSIYGDLADFSGPYEKFEDGTIPCGQFPSGQGVIPISWLDEGGWSGVENTDTSTGGSCKEGSYCSYACQPGMSKTQWPSDQPSDGRSIGGLLCKDGYLYRSNTDTDYLCEWGVDAAYVVSELSNDVAICRTDYPGTENMVIPTYVQAGDSLPLTVVDQDTYYTWQGLKTSAQYYVNNAGISVEDACVWGSSSSGVGNWAPLNFGAGSSDGVAYLSLIPNPNNGNALNFNVKIVAADDSSTVNGECIYENGSFSGGSDGCTVSVTAGKAKFVLYN
# Columns and labels:
# Assay in all cases: glycan array binding signal (z-score within array); higher = stronger binding
# Conditions in all cases: glycan notation: IUPAC condensed, linker removed
# [1] = molecular target: Neu5Ac(a2-6)Gal(b1-4)GlcNAc(b1-3)[Neu5Ac(a2-6)Gal(b1-4)GlcNAc(b1-6)]GalNAc
# Outline: (§1)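 From the Consortium for Functional Glycomics database, 3228 arrays were curated, keeping only those whose protein sequence was available. Binding is given as a within-array Z-score averaged across arrays sharing a protein sequence and across linkers. Negative Z-scores can be read as non-binding.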
# [2] = molecular target: Neu5Ac(a2-6)Gal(b1-4)GlcNAc(b1-6)GalNAc
# Outline: as §1
# [3] = molecular target: Neu5Ac(a2-6)Gal(b1-4)GlcNAc(b1-6)[Gal(b1-3)GlcNAc(b1-3)]Gal(b1-4)Glc
# Outline: as §1
# [4] = molecular target: Neu5Ac(a2-6)Gal(b1-4)GlcNAc(b1-6)[Gal(b1-3)]GalNAc
# Outline: as §1
# [5] = molecular target: Neu5Ac(a2-6)Gal(b1-4)GlcNAc6S
# Outline: as §1
# Neu5Ac(a2-6)GalNAc = molecular target: Neu5Ac(a2-6)GalNAc
# Outline: as §1
# [6] = molecular target: Neu5Ac(a2-6)GalNAc(b1-4)GlcNAc
# Outline: as §1
# [7] = molecular target: Neu5Ac(a2-6)GalNAc(b1-4)GlcNAc6S
# Outline: as §1
# [8] = molecular target: Neu5Ac(a2-6)GlcNAc(b1-4)GlcNAc
# Outline: as §1
# [9] = molecular target: Neu5Ac(a2-6)GlcNAc(b1-4)GlcNAc(b1-4)GlcNAc
# Outline: as §1
# Neu5Ac(a2-8)Neu5Ac = molecular target: Neu5Ac(a2-8)Neu5Ac
# Outline: as §1
# [10] = molecular target: Neu5Ac(a2-8)Neu5Ac(a2-3)Gal(b1-3)GalNAc(b1-4)[Neu5Ac(a2-3)]Gal(b1-4)Glc
# Outline: as §1
# [11] = molecular target: Neu5Ac(a2-8)Neu5Ac(a2-3)Gal(b1-3)GalNAc(b1-4)[Neu5Ac(a2-8)Neu5Ac(a2-3)]Gal(b1-4)Glc
# Outline: as §1
# [12] = molecular target: Neu5Ac(a2-8)Neu5Ac(a2-3)Gal(b1-4)Glc
# Outline: as §1
# [13] = molecular target: Neu5Ac(a2-8)Neu5Ac(a2-3)Gal(b1-4)GlcNAc
# Outline: as §1
# [14] = molecular target: Neu5Ac(a2-8)Neu5Ac(a2-3)[Gal(b1-3)GalNAc(b1-4)]Gal(b1-4)Glc
# Outline: as §1
# [15] = molecular target: Neu5Ac(a2-8)Neu5Ac(a2-3)[GalNAc(b1-4)]Gal(b1-4)Glc
# Outline: as §1
# [16] = molecular target: Neu5Ac(a2-8)Neu5Ac(a2-8)Neu5Ac
# Outline: as §1
# [17] = molecular target: Neu5Ac(a2-8)Neu5Ac(a2-8)Neu5Ac(a2-3)Gal(b1-4)Glc
# Outline: as §1
# [18] = molecular target: Neu5Ac(a2-8)Neu5Ac(a2-8)Neu5Ac(a2-3)[Gal(b1-3)GalNAc(b1-4)]Gal(b1-4)Glc
# Outline: as §1
# [19] = molecular target: Neu5Ac(a2-8)Neu5Ac(a2-8)Neu5Ac(a2-3)[GalNAc(b1-4)]Gal(b1-4)Glc
# Outline: as §1
# [20] = molecular target: Neu5Ac(a2-8)Neu5Ac(a2-8)Neu5Ac(a2-8)Neu5Ac(a2-3)[GalNAc(b1-4)]Gal(b1-4)Glc
# Outline: as §1
# [21] = molecular target: Neu5Ac(a2-8)Neu5Gc(a2-3)Gal(b1-4)GlcNAc
# Outline: as §1
# [22] = molecular target: Neu5Ac(b2-6)Gal(b1-4)GlcNAc
# Outline: as §1
# Neu5Ac(b2-6)GalNAc = molecular target: Neu5Ac(b2-6)GalNAc
# Outline: as §1
# [23] = molecular target: Neu5Ac9Ac(a2-3)Gal(b1-3)GlcNAc
# Outline: as §1
# [24] = molecular target: Neu5Ac9Ac(a2-3)Gal(b1-4)GlcNAc
# Outline: as §1
# [25] = molecular target: Neu5Ac9Ac(a2-6)Gal(b1-4)GlcNAc
# Outline: as §1
# [26] = molecular target: Neu5Gc(a2-3)Gal(b1-3)GlcNAc
# Outline: as §1
# [27] = molecular target: Neu5Gc(a2-3)Gal(b1-3)[Fuc(a1-4)]GlcNAc
# Outline: as §1
# Neu5Gc(a2-3)Gal(b1-4)Glc = molecular target: Neu5Gc(a2-3)Gal(b1-4)Glc
# Outline: as §1
# [28] = molecular target: Neu5Gc(a2-3)Gal(b1-4)GlcNAc
# Outline: as §1
# [29] = molecular target: Neu5Gc(a2-3)Gal(b1-4)GlcNAc(b1-3)Gal(b1-4)GlcNAc(b1-2)Man(a1-3)[Neu5Gc(a2-3)Gal(b1-4)GlcNAc(b1-3)Gal(b1-4)GlcNAc(b1-2)Man(a1-6)]Man(b1-4)GlcNAc(b1-4)GlcNAc
# Outline: as §1
# [30] = molecular target: Neu5Gc(a2-3)Gal(b1-4)[Fuc(a1-3)]GlcNAc
# Outline: as §1
# [31] = molecular target: Neu5Gc(a2-6)Gal(b1-4)GlcNAc
# Outline: as §1
# Neu5Gc(a2-6)GalNAc = molecular target: Neu5Gc(a2-6)GalNAc
# Outline: as §1
# [32] = molecular target: Neu5Gc(a2-8)Neu5Ac(a2-3)Gal(b1-4)GlcNAc
# Outline: as §1
# [33] = molecular target: Neu5Gc(a2-8)Neu5Gc(a2-3)Gal(b1-4)GlcNAc
# Outline: as §1
binder,measurement,setting,value
B1,glycan array binding signal (z-score),[1],0.213
same,glycan array binding signal (z-score),[2],1.03
same,glycan array binding signal (z-score),[3],-0.171
same,glycan array binding signal (z-score),[4],-0.136
same,glycan array binding signal (z-score),[5],-1.46
same,glycan array binding signal (z-score),Neu5Ac(a2-6)GalNAc,-1.52
same,glycan array binding signal (z-score),[6],-1.09
same,glycan array binding signal (z-score),[7],0.559
same,glycan array binding signal (z-score),[8],0.049
same,glycan array binding signal (z-score),[9],-0.174
same,glycan array binding signal (z-score),Neu5Ac(a2-8)Neu5Ac,0.541
same,glycan array binding signal (z-score),[10],-0.03
same,glycan array binding signal (z-score),[11],0.899
same,glycan array binding signal (z-score),[12],0.051
same,glycan array binding signal (z-score),[13],0.123
same,glycan array binding signal (z-score),[14],-0.086
same,glycan array binding signal (z-score),[15],-0.355
same,glycan array binding signal (z-score),[16],0.015
same,glycan array binding signal (z-score),[17],0.633
same,glycan array binding signal (z-score),[18],-0.179
same,glycan array binding signal (z-score),[19],0.133
same,glycan array binding signal (z-score),[20],-0.426
same,glycan array binding signal (z-score),[21],0.215
same,glycan array binding signal (z-score),[22],-0.182
same,glycan array binding signal (z-score),Neu5Ac(b2-6)GalNAc,-1.22
same,glycan array binding signal (z-score),[23],-0.945
same,glycan array binding signal (z-score),[24],-0.609
same,glycan array binding signal (z-score),[25],0.082
same,glycan array binding signal (z-score),[26],-0.627
same,glycan array binding signal (z-score),[27],0.391
same,glycan array binding signal (z-score),Neu5Gc(a2-3)Gal(b1-4)Glc,-0.809
same,glycan array binding signal (z-score),[28],1.01
same,glycan array binding signal (z-score),[29],-0.115
same,glycan array binding signal (z-score),[30],0.118
same,glycan array binding signal (z-score),[31],-0.424
same,glycan array binding signal (z-score),Neu5Gc(a2-6)GalNAc,-0.314
same,glycan array binding signal (z-score),[32],-0.633
same,glycan array binding signal (z-score),[33],-0.415

# Shown bar-delimited: entries from further up
binder | measurement | setting | value
B1 | glycan array binding signal (z-score) | [18] | -0.179
same | glycan array binding signal (z-score) | [19] | 0.133
